No constants are given. Whether binding was seen depends on the method and setting. Binding seen in cells or lysates may run through a third protein. Here binding means that the protein was enriched with, or labelled near, the bait; the list need not be complete.
Molecular target: FLAG-BirA*-MOB1 (Toxoplasma gondii MOB1 fused to the C-terminal end of FLAG-BirA*) (Toxoplasma gondii)
Assay: proximity labelling; BioID: FLAG-BirA*-MOB1 (control: FLAG-BirA*) tachyzoites in HFF cells, 150 µM biotin for 56 h; lysate in sucrose-based lysis buffer on agarose-streptavidin beads overnight at 18 °C; nanoLC-MS/MS; three biological replicates

| Binder | binding |
| --- | --- |
| Aminotransferase, putative (TGME49_264030) (protein, UniProt S8F550 1-636) MQFFHLFDSLNSPFVCAYRKRFFIGVFGRSQFVSTKQHFSMMPKFVRGRAAPMPETLEGVNSSCPAKTSNGSLPQSVAPAPSNPVNAENPPPQSAIATMETHCRENGSGTLLHRHRSHLADDVDMENRHRLSRQPTLSMCSLPERVVECKYAVRGVTVRRALELQEQLTKSPNCLNFKKLIFANIGDPQALGQRPISFYRQVMACVMYPPLVGLPLGCNRVELADIEPKNGQNTSFEENNSSSEEHTLFALDIVAKSRRYLQAMGSVGAYTHSQGHPLFRKDIAAWLTDRDGVATDPDTIFLTDGASSGIRLVLELLLRERSDGLLIPVPQYPLYAGLIVRLGGRVVPYYLEEETGWSFSLSAVREAMQDAKRKGICVRGIVVINPGNPTGTVLTEKEIREIINFCDTERLVLLADEVYQDNVYGNVPFISARKVLHQMDANVSLFSFHSSSKGLVGECGLRGGLLHVDTITEDVRLQMYKLVSMFMCGNTLGQLAITCVCTPPKPGDASYERFQRERLAIYDSMKSKAHLVYDQLNQIEGVSCQPIAGAVFGFPQIRIPPGALREAKKKGVEADLLFCLELLEATGIVTVPGSGFGQKHGTYHIRICILPPKHVLVDMLEKLKEFYAMFVKKYSE | binds |
| Uncharacterized protein TGME49_206540 (protein, UniProt S8F8P1 1-1255) MALPSTPAVDRSVLPLNGLSPVQEESSSGPFPVDSCDRVFGLPTNSFASVLRRVSSFASQPALSLPSAFFSPSLRGSPSHSSTPAAASFRQAALCCVSTGCYIFLLGASLQPSVFPLFLLDQADDAGQLTSADAVSVSSPPSSLLPLCVALFCSCAPFALLFPLAVVWLFNAACAGLAALHLRRKQGGVVVAATLLDVRFPRSSRSAAEEPGSPDAACLALPPLWAKEASKFAWTDETGGPPVLRDNHDRRDVSLVSASTEGGLASMYAPPDVNQQTQRMSSDYFAKPSSSSSASSSSSSSSSSSSSSSSSSSSRQPEFVVRSRESPLTLAAAAPPDAKSRDEAIRLAGVSSKRRADGEGEREFRDSPSSRRGEEGRATEGANECHPLVQLTTSFEGSTVPPGDRGPSFFGQGNGCSVSSLVRSRQGSVVGVDSLASLSESDFDGASLLVSLGVPSQHSPGSRELRPGRANCGDKLNFKRSSRRRASREDSEPRVPEPPGLVFLRFCWTAAAAGARRFSRHLASWCRCFSRTVSGPLARRLVSLSGVSLAVCGSVFACLHELLLLLAFRVEGAKRVEMWTALASVSYAELPFLLLVGSCLRWWRPCLSCSRTLGVSLLLCANVLLCFSPLSLSPLPRASVADLARLLSNSSASLTSFTSSPFAGRLPASPLSSSISDDAFFLPRAPTAISESPLPSSLWNYEFQSSPSAGFTLTSAAGLAISRDGTSLTSTLPPPSSFSLRSSPLTVSSVSSSSSPSSSQSSSLSSSPSAPVSSSSPPPSPVSSSPPPSPVSSSSTPSSPVSSSFSISPSSPFPSVSSPASSVSSLSSSSSVAMPEKSSSSSPDSLLDSGKSPRGAIVPPATLPSPEALTTDFVEAYDWQKNEKTKSRISSPETSEAAPGLKPSRKNGEKRRDGEASSHSQLATKKDSGTGPAEMHAAAMLFALGALFASLVSSLSLALAIHTGLSVLTACILRFFTQGVMGCLGIVYGVAWGHWVDREGLASAMPPSSPLAAAAACVGACIFGLLATVSFFKSASLPVLPLSSGIRGGCWAIVALLALGLHHAPLPRPVVLLLLLALTGSLLFGWSCMRMEFSIANTPAPDEAGESTPRIFRLPASDKAFATSLCEGLLPAKGAASERDRRGSAERSTRADGGRETGDWDRDESPGWYRRGRAEEHRESVGEQYCAHEDDSIGPLPARCDTCGEDLQVEALLERSRSRVPVGYSGEFGRFDVLGESVGCEAVESECRVCAHDDQ | binds |
| Hemimethylated DNA binding domain-containing protein TGME49_210778 (protein, UniProt S8GS10 1-609) MEDFLSIAHGNPLDGPMAETPRWHPAEWEAVLGNMESAVLKIDFSQSLGNWASIREQSTFNVTMADSTVVCTHPQRRDDDLFMEFPQSTQNAKSNGLTPKRADAEPKRLVSAFPEMRDYLRTARLRWIVDRCFQFKDGDASEWTYEICVGKKVTQFAGNQKAGKTIGKTLFEWGTYKIGHDQLWANGTLTQIYGNGTGGRQTEVFFECLDQYPTVTAIEEVRESELRMWVGASMFCDFRPTNPTPPLLEALLRPLEGWCANFTTTGFWSYEYCHPDSLVQFHKDSSGDVRDPMFLLGTLHTSTPSSTFMWKTHASADFPMLRGKGAGVNTNSRPKFRFLPVQLVDFPSELNRGREEKPQQVLAMELTKGTLCDSADVQRSTRVLFECPDDFATLATHQVMKVMETSPCHHELLIHTPLVCPHPRLLPPRPKEPQQVNCVPVESHQLDSPHVSEANHVKVTAGTAVDPGLEAIPSSYLPDGKISLNGSHFGMRQYKRSRSSRKSPAFRVGRLVRHRWSKYTAVVLSWDRSCEAPPDWTAKVYEHYPESSSHKPHYLLLVDQAAVREPQLPLFAYVPEVALEPAPAGQGLFRHPLTSYFFHHFSTHSLTSN | binds |
